Test results taken from patent US20230174670A1 (JIANGSU HENGRUI PHARMACEUTICALS, published 2023).
Numbering of substitutions follows the chain as printed. No constants are given. Whether binding was seen depends on the method and setting. Some entries that bind do so weakly or less than the wild type.

Amino acid sequences for entries named in this document (tags omitted). A change or cut given only in a name is not applied to a line headed by its entry. Chains listed by the source or under a name are the forms on record and can include a tag or linker.
recombinant monkey CD25-His protein (monkey (cynomolgus)) (H6WS54, form named): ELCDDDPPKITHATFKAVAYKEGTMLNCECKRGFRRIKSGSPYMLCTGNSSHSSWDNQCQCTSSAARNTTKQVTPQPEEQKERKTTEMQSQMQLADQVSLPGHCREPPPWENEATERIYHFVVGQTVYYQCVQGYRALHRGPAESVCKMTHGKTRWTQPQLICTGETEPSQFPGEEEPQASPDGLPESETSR

Target: recombinant monkey CD25-His protein (monkey (cynomolgus)) (UniProt H6WS54)
Assay: ELISA, plate coated with monkey CD25-His

B1: cAb001 (antibody, V domains shown)
VH: QVTLKESGPGILQPSQTLSLTCSFSGFSLNTFGMGVGWIRQPSGKGLEWLAHIWWDDDKYYNPALKSRLTISKDTSKNQVFLKIANVDTADTVTYYCARITTEVGNYDVWGMGTTVTVSS
VL: EIVLTQSPALMAASPGEKVTITCSVSSGITSNNLHWYQQKSETSPKPWIYGTSNLASGVPIRFSGSGSGTSYSLTISSMEAEDAATYYCQQWSSYPFTFGSGTKLEIK
notes: also called mAb001/cAb001
  binding: binds

B2: cAb002 (antibody, human IgG1, V domains shown)
VH: QVTLKESGPGILQPSQTLSLTCSFSGFSLSTFGLGVGWIRQPSGKGLEWLAQIWWDDDEYYNPALKSRLTISKDTSRNQVFLKIANVDTGDTATYFCARMGDTYWYFDVWGTGTTVAVSS
VL: B1 VL with L4V, A13V, V25L, N32S, I61V, G69K
notes: also called mAb002/cAb002
  binding: binds

B3: cAb006 (antibody, human IgG1, V domains shown)
VH: QIQLQQSGAELMKPGASVKLSCKATGYTFTGHWIEWVKQRPGHGLEWVGEILPGSNKINYNEKFKGKATFTAETSSNTVYMQLSSLTTEDSAIYYCAGGGGPHWPFAFWGQGSLVTVSA
VL: DIVLTQSPASLTVSLGQRATISCRASESVNVHGAHLMHWYQQKPGQPPKLLIYAASILESGVPARFSGSGSETDFTLNIHPVEEEDAATYFCQQTIEDPRTFGGGTKLEIK
notes: also called mAb006/cAb006
  binding: binds

B4: cAb029 (antibody, human IgG1, V domains shown)
VH: QVTLKESGPGILQPSQTLSLTCSFSGFSLSTFGMGVGWIRQPSGKGLEWLAHIWWDDDEYYNPALKSRLTISKDTSKNQVFLKIANVDTADTATYYCTRIMLTTGYFDVWGTGTTVTVSS
VL: B1 VL with S24T, N32S, I61V, K104R
notes: also called mAb029/cAb029
  binding: binds

B5: cAb037 (antibody, human IgG1, V domains shown)
VH: QVRLQQSGPELVKPGASVQMSCKASGYTFTDYYINWVKQRPGQGLEWIAWIFPGNGNTYFNENFKDKATLSVDKFSSTAFMLLSSLTSEDSAVYFCARATYDHGGYWYFDVWGTGTTVTVSS
VL: QIVLSQSPAILSASPGEKVTMTCRASSSVSHIHWYQQKPGSSPKPWIYATSNLASGVPGRFSGSGSGTSYSLTVSRVEAEDAATYYCQHWNSFTFGGGTELELK
notes: also called mAb037/cAb037
  binding: binds

B6: cAb042 (antibody, human IgG1, V domains shown)
VH: QVQLQQSGPELVKSGASVKLSCKASGYTFTTYDINWMKQRPGQGLEWIGWIYPRDGSTKYNAKFKGKATLTEDTSSNTAFMELHSLTSEDSAVYFCARERIYDGSFDYWGQGTTLTVSS
VL: DIVMTQSPSSLSVSAGEKVSMRCKSSQRLFNSRDQKNYLAWYQQKPGQPPKLLIYGASTRESGVPDRFTGSGSGTDFTLTISSVQAEDLAVYYCQNDHIYPLTFGAGTKLELK
notes: also called mAb042/cAb042
  binding: binds

B7: cAb046 (antibody, human IgG1, V domains shown)
VH: EVQLVESGGGLVKPGGSLKLSCAASGFTFSSYAMSWVRQTPEKRLEWVATISEGGSYTYYPDNVKGRFTISRDNARNNLYLQMSHLKSEDTAMYLCVRDNPWFAYWGQGTLVTVST
VL: DVLMTQTPLSLPVSLGDRASISCRSSQNIVHSNGNTYLEWFLQKPGQSPKLLIYKVSKRFSGVPDRFSGSGSGTDFTLKISRVEAEDLGVYYCFQGSHVPYTFGGGTKLEIK
notes: also called mAb046/cAb046
  binding: binds
